Laboratory results: PubChem BioAssay AID1671195 (Yale University, 2021)
This is an unselected part of about 22,000 deposited reagents. Of all reagents, about 1,510 (6.9%) were called active. 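Active includes knockdowns raising or lowering LDL uptake; positive z-scores mean more uptake, negative mean less.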 Unmarked entries are inactive. The numbers tell different reagents against one gene apart.

Assay: 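Regulators of LDL receptor activity judged by labelled LDL uptake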 (primary screen)
Cell system: human Huh7 hepatoma cells
Knock-down reagent: siRNA pool against human genes, 18 nM
Timing: about 2 to 2.5 days of knockdown, then 8 h LDL uptake
Challenge: DiI-labelled LDL at 30 µg/ml for 8 h, in lipoprotein-deficient serum medium
Detection: 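Fluorescent LDL signal imaged in cells, scaled to the plate median, robust z-score for each replicate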
Scale: robust z-score: higher = more LDL uptake after knockdown
Active means: 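a gene counts as active if at least two replicate z-scores exceed ±2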

Gene | reagent no. | robust z-score, replicate 1 | robust z-score, replicate 2 | robust z-score, replicate 3
ADIG | 1 | -0.268 | -0.631 | -0.773
ANXA11 | 1 | 0.927 | 0.0848 | 0.552
MMP28 | 1 | -0.346 | -0.654 | 0.584
OR7C1 | 1 | 1.91 | 0.395 | 1.41
HSD17B2 | 1 | 0.318 | -0.552 | 0.401
LOC283816 (retired record) | 1 | -0.258 | 0.0441 | -0.138
TERF2 | 1 | -0.191 | 0.145 | -0.254
LOC401500 (retired record) | 1 | -0.906 | -0.835 | -0.616
MYT1L | 1 | 0.502 | 0.358 | 0.246
ESPL1 | 1 | 1.72 | 1.41 | 0.717
PARP16 | 1 | -1.14 | 0.987 | -0.349
KCNQ5 | 1 | 0.0115 | -0.53 | -0.637
ALOX15B | 1 | -0.546 | -0.571 | -0.14
PARP15 | 1 | 0.731 | 0.442 | 2.35
TPRX1 | 1 | -0.911 | -1.28 | -1.22
CENPQ | 1 | 2.05 | -0.168 | 1.38
DENND4B | 1 | 2.41 | 0.199 | 0.69
SPIN4 | 1 | -0.0661 | -0.644 | -0.381
AMOT | 1 | 0.0538 | 0.214 | 0.157
MLEC | 1 | 1.46 | -0.147 | 0.2
LOC440343 (retired record) | 1 | 0.146 | 0.544 | 0.325
CIMIP2C | 1 | 1.94 (active) | 2.25 | 1.86
LOC401131 | 1 | -0.855 | -1.18 | -0.813
OR4K1 | 1 | 0.558 | 0.115 | 0.487
FAM47B | 1 | 0.452 | 1.5 | -0.435
NDUFB5 | 1 | -1.05 | -1.79 | -1.69
LINC00615 | 1 | -0.156 | 0.423 | 0.307
USP24 | 1 | 1.19 | 0.226 | 0.823
N4BP2L2 | 1 | -0.242 | 1.7 | -0.368
N4BP2L2 | 2 | 0.415 | -0.356 | 0.492
PRSS27 | 1 | 0.0885 | 1.05 | 0.233
LOC441886 (retired record) | 1 | 0.591 | 0.764 | 0.78
PDILT | 1 | -0.852 | -1.38 | -1
PRUNE2 | 1 | -0.323 | 0.887 | 0.19
PRUNE2 | 2 | -0.166 | -1.13 | -0.0981
RAB14 | 1 | -0.321 | -0.163 | 0.0527
LOC390488 (retired record) | 1 | 0.0331 | 0.0685 | 0.154
MAP2K2 | 1 | 3.12 | -0.133 | 0.203
RNF115 | 1 | 1.12 | 1.27 | 0.367
ZNF233 | 1 | -0.699 | -1.07 | -0.629
RBP5 | 1 | -0.227 | -0.265 | -0.251
C6orf89 | 1 | -0.473 | -0.627 | -0.484

Next part; the last 2 above are carried over.
Gene | reagent no. | robust z-score, replicate 1 | robust z-score, replicate 2 | robust z-score, replicate 3
RBP5 | 1 | -0.227 | -0.265 | -0.251
C6orf89 | 1 | -0.473 | -0.627 | -0.484
KIFC3 | 1 | -0.712 | -1.42 | -1.25
CD1A | 1 | 1.66 | 1.92 | -0.388
NCOA2 | 1 | -0.265 | -0.316 | -0.583
PPP1R12BP1 | 1 | -0.304 | 0.286 | -0.549
CD200 | 1 | 1.64 | 1.43 | 1.92
CRYM | 1 | -1.5 | -0.648 | -1.02
GK6P | 1 | -0.782 | -0.185 | -0.375
NCKAP5 | 1 | -0.112 | 0.0382 | -0.315
UVSSA | 1 | 0.862 | -0.564 | -0.875
RBFOX1 | 1 | -1.01 | -0.542 | -0.225
SSC4D | 1 | 0.206 | -0.34 | 0.136
TOX3 | 1 | -0.472 | -1.33 | -0.794
RAB43 | 1 | -0.832 | -0.927 | -0.791
HLA-DQB2 | 1 | -1.68 | -0.969 | -1.43
ELAVL3 | 1 | 1.54 | 1.58 | 2.16
DUS1L | 1 | -0.852 | 0.171 | -0.0832
DNASE1L3 | 1 | 0.399 | 0.466 | 0.814
LAPTM4A | 1 | -0.328 | 0.311 | -1.86
GASK1B | 1 | -0.0392 | 0.727 | -0.084
ITLN2 | 1 | -1.38 | -0.278 | -0.773
SLC4A3 | 1 | 0.0907 | -0.104 | 0.023
SPMIP4 | 1 | 1.4 | -0.113 | 1.18
HAP1 | 1 | 0.249 | -0.323 | -0.971
PHF5A | 1 | -1.08 | -0.584 | -0.268
ADGRG3 | 1 | 0.965 (active) | 2.81 | 2
LOC389301 (retired record) | 1 | -0.93 | -0.773 | -0.865
